Literature values, collected in US20030049260A1, “Method of improving cognitive function” (priority 2001, published 2003).
At least one compound was matched to its structure with a doubt left.

Settings: duration 12 weeks; significant; Ann Int Med 1992;116:615-623

For `COC(=O)C1=C(C)NC(C)=C(C(=O)OC)C1c1ccccc1[N+](=O)[O-]` [Nifedipine], the “Change in Symbol Digit: reduction w/nifedipine as compared to atenolol” value is listed as 10-12% reduction.
